Our source for the binding values is patent US20120003655A1, “IDENTIFICATION OF NEUROPROTECTIVE AGENTS USING PRO-INFLAMMATORY HUMAN GLIAL CELLS” (The Salk Institute for Biological Studies, priority 2008, published 2012).

Amino acid sequences for entries named in this document (tags omitted). A change or cut given only in a name is not applied to a line headed by its entry.
UniProt Q8CFE3: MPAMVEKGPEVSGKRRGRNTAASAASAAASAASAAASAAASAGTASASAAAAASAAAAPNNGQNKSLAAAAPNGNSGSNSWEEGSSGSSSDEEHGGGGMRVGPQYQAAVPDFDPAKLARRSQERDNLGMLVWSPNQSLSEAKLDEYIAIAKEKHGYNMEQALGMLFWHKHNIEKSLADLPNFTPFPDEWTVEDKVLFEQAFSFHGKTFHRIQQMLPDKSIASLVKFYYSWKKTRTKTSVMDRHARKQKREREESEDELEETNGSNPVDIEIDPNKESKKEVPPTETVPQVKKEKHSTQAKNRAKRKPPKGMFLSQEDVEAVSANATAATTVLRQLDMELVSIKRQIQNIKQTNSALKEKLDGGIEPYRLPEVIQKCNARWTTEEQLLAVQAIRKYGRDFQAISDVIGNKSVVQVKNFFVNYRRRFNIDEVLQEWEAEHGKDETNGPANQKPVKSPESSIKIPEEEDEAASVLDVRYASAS
UniProt Q06219: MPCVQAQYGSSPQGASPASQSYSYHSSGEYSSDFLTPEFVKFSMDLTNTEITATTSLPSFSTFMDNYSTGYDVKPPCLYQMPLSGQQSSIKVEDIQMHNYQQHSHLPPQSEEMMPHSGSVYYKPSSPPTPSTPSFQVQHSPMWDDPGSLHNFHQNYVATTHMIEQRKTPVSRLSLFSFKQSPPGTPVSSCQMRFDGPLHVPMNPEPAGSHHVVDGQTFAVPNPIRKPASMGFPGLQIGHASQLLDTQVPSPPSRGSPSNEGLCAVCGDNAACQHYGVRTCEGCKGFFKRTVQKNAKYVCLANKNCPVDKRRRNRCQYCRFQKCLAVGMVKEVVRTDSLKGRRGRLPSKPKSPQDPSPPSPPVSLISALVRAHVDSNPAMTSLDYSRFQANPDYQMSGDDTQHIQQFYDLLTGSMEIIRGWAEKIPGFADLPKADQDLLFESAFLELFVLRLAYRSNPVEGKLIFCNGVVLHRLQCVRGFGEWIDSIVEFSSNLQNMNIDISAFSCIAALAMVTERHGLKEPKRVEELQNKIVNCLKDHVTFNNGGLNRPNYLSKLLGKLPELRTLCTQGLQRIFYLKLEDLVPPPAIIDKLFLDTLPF

In assay [1] the target is CoREST, as used in the GST-pull down of FIG. 24E (mouse) (UniProt Q8CFE3). Kind of assay: GST-pull down (FIG. 24E).
Assay [2] has as its target 35S-labeled CoREST (mouse) (UniProt Q8CFE3). Kind of assay: GST-pull down, 35S-labeled CoREST on GST-Nurr1 (FIG. 24D left panel).

No constants are given. Whether binding was seen depends on the method and setting. Some entries that bind do so weakly or less than the wild type.

For the substance “Nurr1 DNA-binding domain (Nurr1-DBD), as used in the GST-pull down of FIG. 24E (from UniProt Q06219 260-335)”, the binding result in assay [1] is given as “binds”.

On to “GST-Nurr1 (wild-type full-length mouse Nurr1 in pGEX-6P) (from UniProt Q06219 1-598)”, for which the binding entry in assay [2] was “binds”.
